Data: US12509423B2, “Compound, aldehyde dehydrogenase 2 activating agent, pharmaceutical composition, and therapeutic and/or prophylactic drug” (Alchemedicine, Inc., priority 2020, dated 2025)
Some entries share one result that the patent states for a list of compounds.

Assays:
[1] = biological target: T1, human recombinant ALDH2 enzyme (Homo sapiens, UniProt P05091); experiment: ALDH2 activation effect (acetaldehyde oxidation rate, PicoProbe Aldehyde dehydrogenase Activity Assay Kit); assay type: biochemical
T1 construct: purchased BioVision Inc
T1 sequence (P05091 18-517): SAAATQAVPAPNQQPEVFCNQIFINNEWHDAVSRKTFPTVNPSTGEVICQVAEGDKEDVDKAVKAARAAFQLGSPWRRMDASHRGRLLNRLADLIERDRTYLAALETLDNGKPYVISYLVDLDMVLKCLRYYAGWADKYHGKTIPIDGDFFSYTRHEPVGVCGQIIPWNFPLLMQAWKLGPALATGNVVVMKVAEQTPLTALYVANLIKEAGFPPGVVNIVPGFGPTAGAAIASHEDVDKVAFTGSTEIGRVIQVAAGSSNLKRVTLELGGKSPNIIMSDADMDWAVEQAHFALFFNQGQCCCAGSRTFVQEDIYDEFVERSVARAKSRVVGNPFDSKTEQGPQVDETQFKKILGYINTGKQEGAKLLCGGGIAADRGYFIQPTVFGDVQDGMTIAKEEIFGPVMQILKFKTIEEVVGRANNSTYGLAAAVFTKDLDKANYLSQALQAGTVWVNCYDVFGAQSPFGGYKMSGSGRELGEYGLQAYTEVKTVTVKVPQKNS
Procedure: The activation effect of each test compound on the acetaldehyde oxidation rate of ALDH2 was measured with the following method. A test was conducted by using a commercially available PicoProbe™ Aldehyde dehydrogenase Activity Assay Kit (manufactured by BioVision Inc.) with reference to an instruction attached to the product under the following conditions. To each well of a 384-well plate, the following (1) to (3) were sequentially added with a pipette: • (1) 10 μL of solution obtained by dissolving and diluting a human recombinant ALDH2 enzyme (manufactured by BioVision Inc.) with ALDH assay Buffer to reach 3-μg/mL; • (2) 10 μL of 30 μM or 90 μM test compound solution (with 3% DMSO) prepared by using ALDH assay Buffer; and • (3) 10 μL of Reaction mix composed with ratio of 8.6 μL of ALDH assay Buffer, 0.6 μL of PicoProbe, 0.3 μL of Substrate Mix, and 1.5 μL of Acetaldehyde.
Before addition of (3), incubation was performed at room temperature for 5 minutes. After addition of (3), fluorescence intensity was measured at room temperature every 2.5 minutes over a period of 180 minutes by using an EnSight (manufactured by PerkinElmer Inc.). Wavelengths of 535 nm and 587 nm were used for fluorescence intensities of excitation and -emission, respectively.

[2] = Metabolic stability with mouse hepatic microsomes; assay type: in vitro ADME
Procedure: Metabolic stability in mouse hepatic microsomes was evaluated with the following method.
• (1) Mouse hepatic microsomes: 20 mg/mL • (2) Test compound: 1.1 mM DMSO solution • (3) Potassium phosphate buffer solution: 66.7 mM (pH 7.4) • (4) NADPH solution: 10 mM in potassium phosphate buffer solution • (5) Quenching solution: 0.5% formic acid-acetonitrile solution with warfarin as internal standard substance 2. Method
Into a propylene tube, 971.5 μL of the potassium phosphate buffer solution and 27.5 μL of the mouse hepatic microsomes were put and suspended. Thereto, 1 μL of a test compound was added, and 180 μL was taken from this mixture and transferred into another tube. The mixture was preincubated at 37° C. for 5 minutes, and 20 μL of the NADPH solution (for the case with an incubation time of 30 minutes) or 20 μL of the potassium phosphate buffer solution (for the case with an incubation time of 0 minutes) was then added thereto. After incubation, 200 μL of the quenching solution was added to terminate the reaction. Subsequently, centrifugation was performed at 3220×g for 20 minutes, and the concentration of the unchanged form of the test compound in 200 μL of the supernatant was measured with LC-MS/MS. On the basis of the peak area obtained for the unchanged form, the residual rate (%) of the unchanged form was calculated as that for the case with an incubation time of 0 minutes was assumed as 100%.

Compound	ALDH2 activation effect (in words) [1]	metabolic stability in mouse hepatic microsomes (in words) [2]
COCc1ccc(CNC(=O)c2cc(-c3ncccc3CO)ccc2F)cc1F [Example 1, 2-Fluoro-N-(3-fluoro-4-(methoxymethyl)benzyl)-5-(3-(hydroxymethyl)pyridin-2-yl)benzamide]	each have ALDH2 activation effect	superior in metabolic stability in mouse hepatic microsomes to conventional ALDH2 activating agents
COCc1ccc(CNC(=O)c2cc(-c3ncccc3COC)ccc2F)cc1F [Example 6, 2-Fluoro-N-(3-fluoro-4-(methoxymethyl)benzyl)-5-(3-(methoxymethyl)pyridin-2-yl)benzamide]	each have ALDH2 activation effect	superior in metabolic stability in mouse hepatic microsomes to conventional ALDH2 activating agents
COCc1ccc(CNC(=O)c2cc(-c3n[nH]cc3CO)ccc2Cl)cc1F [Example 7, 2-Chloro-N-(3-fluoro-4-(methoxymethyl)benzyl)-5-(4-(hydroxymethyl)-1H-pyrazol-3-yl)benzamide]	each have ALDH2 activation effect	superior in metabolic stability in mouse hepatic microsomes to conventional ALDH2 activating agents
